Experimental data reported in PubChem BioAssay AID493014 (National Center for Advancing Translational Sciences (NCATS), 2011).
Screen size: about 340,000 compounds; about 170 (0.05%) were called active. The inconclusive results got no clear call from the source; some entries with a clear call stand among them for comparison. Calls follow the shape of the dose curve; as a rule, active = well fitted inhibition curve with a large enough effect in the signal ratio, with a control signal flat (not every such curve was filed as active); inconclusive = small, poorly fitted or top-dose-only effect, or effect the other way, or a change in a side signal; inactive = flat fitted curve, though single readings scatter; the % refers to the signal ratio. Potencies beside an inconclusive call are fits to weak or partial responses and may not hold up.

Assay: qHTS Assay to Find Inhibitors of Chronic Active B-Cell Receptor Signaling;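 as to activity change, negative = inhibition: plate controls were basal doxycycline-induced cells for no effect and cells given 10 µM MG132 for full effect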
Conditions: ABC-DLBCL IkBa-CBG/CBR reporter, luminescence ratio (green luciferase fused to IkBa over red control in TMD8 lymphoma cells), 4 h; activity change, negative = inhibition: at 46.1 µM (top of the series)
Summary of the method: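 Doxycycline induced both beetle luciferases in TMD8 lymphoma cells; IKK-driven degradation limits the IkappaBalpha-fused green signal, while red luminescence normalises for cell number and nonspecific effects. Compounds tested up to 46 uM, 4 hrs.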
Potency is read from the fitted curve at half-maximal effect.

| SMILES | activity change, negative = inhibition | Potency |
| --- | --- | --- |
| O=C(COC(=O)Cc1ccccc1)Nc1ccc(F)cc1 | inconclusive: 4.39% | – |
| CC(C)(C)NC(=O)C1CC2CCCCC2CN1 (centres undefined) | inconclusive: -1.32% | – |
| CSCCC(NS(=O)(=O)c1ccc2c(c1)oc(=O)n2C)C(=O)Nc1ccc(F)c(Cl)c1 (centres undefined) | – | inconclusive: 1.58 µM [falling, full curve] |
| CCOc1ccc(-n2c(O)c(C=NCCN(CC)CC)c(=O)[nH]c2=O)cc1 | inconclusive: 0.0981% | – |
| Cc1c(/C=N/O)c2ccccc2n1C | inconclusive: 9.28% | – |
| COC(=O)C1=C(c2ccccc2OCc2ccccc2)C[C@@H]2CC[C@H]1N2C(=O)NCc1ccccc1 | inconclusive: -0.562% | – |
| CN1C(=O)c2ccccc2NC(=O)C1Cc1ccccc1 (centres undefined) | – | inconclusive: 22.4 µM [falling, partial curve, poor fit] |
| Cc1cc(S(=O)(=O)NC(C)C)ccc1OCC(=O)N1CCN(Cc2ccc3c(c2)OCO3)CC1 | inactive: -1.54% | – |
| Cc1cc(C(=O)OCC(=O)Nc2c(F)cccc2F)c(C)n1C1CC1 | inconclusive: -13.8% | – |
| C=Cn1ccnc1P(=S)(c1c(C)nn(-c2ccccc2)c1C)c1nccn1C=C | inconclusive: 4.16% | – |
| CCOC(=O)C1CCCN(c2ccc([N+](=O)[O-])c3nonc23)C1 (centres undefined) | – | inconclusive: 3.98 µM [rising, full curve, poor fit] |
| CN1C(=O)C(=Cc2ccccc2OCCOc2ccc([N+](=O)[O-])cc2)C(=O)N(C)C1=O | inactive: -12.8% | – |
| CN1CCN(CCOC2c3ccccc3CSc3ccc(Cl)cc32)CC1 (centres undefined) | inconclusive: -7.33% | – |
| Cc1cccc(NC2=NCCCS2)c1 | inactive: -6.94% | – |
| CCc1ccccc1NC(=O)CN1CCN(C(=O)COc2ccccc2C#N)CC1 | – | inconclusive: 18.4 µM [falling, partial curve] |
| CN(C)C(=O)Oc1ccc(OC(=O)c2ccccc2)cc1 | inactive: 4.55% | – |
| Cc1ccc(-n2c(O)c(/C=N/N3CCOCC3)c(=O)[nH]c2=S)cc1 | inconclusive: 9.54% | – |
| CCCC(=O)OCC[N+](C)(C)C | – | inconclusive: 35.5 µM [falling, single point] |
| CCOC(=O)C1(CCOc2ccccc2)CCN(Cc2ccccc2OC)CC1 | inactive: -2.12% | – |
| CNc1ccc2c3c(cccc13)C(=O)N(C)C2=O | inconclusive: -1.28% | – |

| SMILES | activity change, negative = inhibition | Potency |
| --- | --- | --- |
| COC(=O)CCCNC(=O)CN1CC(c2ccccc2)CC1=O (centres undefined) | inactive: 0.994% | – |
| CCN(CC)C(=O)Cn1cc(/C=C2\C(=O)NC(=O)N(c3ccccc3F)C2=O)c2ccccc21 | inconclusive: 11.5% | – |
| CCn1nc(-c2cccs2)nc2c(=O)n(C)c(=O)nc1-2 | – | inconclusive: 12.6 µM [falling, partial curve] |
| CCC(=NCc1cc(OC)cc(OC)c1)c1c(O)[nH]c(=O)[nH]c1=O | – | inconclusive: 20 µM [falling, partial curve, poor fit] |
| CCCCn1c(=O)c(C=Nc2ccc(Cl)cc2)c(O)n(Cc2ccco2)c1=O | inconclusive: -0.731% | – |
| O=C(Nc1ccon1)c1cccn(Cc2ccccc2)c1=O | inconclusive: 14.4% | – |
| O=C1NC(=O)N(CC2CCCO2)C(=O)/C1=C/c1cccs1 (centres undefined) | inconclusive: 28% | – |
| COc1ccc(-n2c(O)c(C(C)=NCC3CCCO3)c(=O)[nH]c2=O)cc1 (centres undefined) | – | inconclusive: 35.5 µM [rising, single point] |
| CCOc1cc(CNCCc2c[nH]c3ccccc23)cc(Cl)c1OCC | inconclusive: -11.3% | – |
| CCCCn1c(NS(=O)(=O)c2ccccc2)c(C(=O)OCC)c2nc3ccccc3nc21 | inconclusive: -15.6% | – |
| COc1cc2c(cc1OC)CN(c1ccc([N+](=O)[O-])c(C(F)(F)F)c1)CC2 | – | inconclusive: 8.2 µM [falling, partial curve, poor fit] |
| COc1cc(C(=O)Nc2ccc(N(C)C)cc2)c([N+](=O)[O-])cc1OC | inconclusive: 2.72% | – |
| CCOC(=O)C(O)(c1ccc(N=c2ccccn2C)cc1)C(F)(F)F (centres undefined) | inactive: 0.0528% | – |
| C[C@]12CCC(=O)C(O)=C1CC[C@@H]1[C@@H]2CC[C@]2(C)C(=O)CC[C@@H]12 | – | inconclusive: 35.5 µM [falling, single point] |
| ON1C2CCCCC2N(O)C1c1ccccc1 (centres undefined) | – | inconclusive: 0.82 µM [rising, full curve, poor fit] |
| O=c1c2ccccc2nc(/C=C/c2ccc(O)cc2)n1-c1cccc(O)c1 | – | inconclusive: 6.31 µM [falling, partial curve, poor fit] |
| COc1ccc(/C=C/c2nc3ccccc3c(=O)n2-c2ccc(C)cc2)cc1O | – | inconclusive: 35.5 µM [falling, partial curve, poor fit] |
| COC1C(OC(=O)c2ccc(C)[nH]2)C(O)C(Oc2ccc3c(O)c(NC(=O)c4ccc(O)c(CC=C(C)C)c4)c(=O)oc3c2Cl)OC1(C)C (centres undefined) | inconclusive: 4.36% | – |
| O=C(N/N=C/c1c(O)n(Cc2ccc(F)cc2)c(=O)[nH]c1=O)c1ccccc1 | – | inconclusive: 5.62 µM [rising, single point] |

Some of the entries so far, with tabs.
SMILES	activity change, negative = inhibition	Potency
CCn1nc(-c2cccs2)nc2c(=O)n(C)c(=O)nc1-2	–	inconclusive: 12.6 µM [falling, partial curve]
O=C(Nc1ccon1)c1cccn(Cc2ccccc2)c1=O	inconclusive: 14.4%	–
O=C1NC(=O)N(CC2CCCO2)C(=O)/C1=C/c1cccs1 (centres undefined)	inconclusive: 28%	–
COc1cc(C(=O)Nc2ccc(N(C)C)cc2)c([N+](=O)[O-])cc1OC	inconclusive: 2.72%	–
CCOC(=O)C(O)(c1ccc(N=c2ccccn2C)cc1)C(F)(F)F (centres undefined)	inactive: 0.0528%	–
C[C@]12CCC(=O)C(O)=C1CC[C@@H]1[C@@H]2CC[C@]2(C)C(=O)CC[C@@H]12	–	inconclusive: 35.5 µM [falling, single point]
ON1C2CCCCC2N(O)C1c1ccccc1 (centres undefined)	–	inconclusive: 0.82 µM [rising, full curve, poor fit]
O=c1c2ccccc2nc(/C=C/c2ccc(O)cc2)n1-c1cccc(O)c1	–	inconclusive: 6.31 µM [falling, partial curve, poor fit]
COc1ccc(/C=C/c2nc3ccccc3c(=O)n2-c2ccc(C)cc2)cc1O	–	inconclusive: 35.5 µM [falling, partial curve, poor fit]
